# The other results are listed elsewhere or left out.
# B1: CD72 ectodomain (Homo sapiens), P21854 (protein)
# chain: RYLQVSQQLQQTNRVLEVTNSSLRQQLRLKITQLGQSAEDLQGSRRELAQSQEALQVEQRAHQAAEGQLQACQADRQKTKETLQSEEQQRRALEQKLSNMENRLKPFFTCGSADTCCPSGWIMHQKSCFYISLTSKNWQESQKQCETLSSKLATFSEIYPQSHSYYFLNSLLPNGGSGNSYWTGLSSNKDWKLTDDTQRTRTYAQSSKCNKVHKTWSWWTLESESCRSSLPYICEMTAFRFPD
# Legend:
# Experiment in all cases: glycan array binding signal (z-score within array); higher = stronger binding
# Settings in all cases: glycan notation: IUPAC condensed, linker removed
# Gal(a1-3)Gal = target: Gal(a1-3)Gal
# Method in brief: (§1)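 The binding signal is a Z-score computed within each array. Data were drawn from 3228 arrays in the Consortium for Functional Glycomics database, restricted to those with a known protein sequence. Scores were averaged over arrays of the same protein sequence at different concentrations or buffers, and over linkers, and negative values can be taken as non-binding.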
# Gal(a1-3)Gal(b1-3)GlcNAc = target: Gal(a1-3)Gal(b1-3)GlcNAc
# Method in brief: as §1
# [1] = target: Gal(a1-3)Gal(b1-3)GlcNAc(b1-2)Man(a1-3)[Gal(a1-3)Gal(b1-3)GlcNAc(b1-2)Man(a1-6)]Man(b1-4)GlcNAc(b1-4)GlcNAc
# Method in brief: as §1
# [2] = target: Gal(a1-3)Gal(b1-3)GlcNAc(b1-3)GalNAc
# Method in brief: as §1
# [3] = target: Gal(a1-3)Gal(b1-3)[Fuc(a1-4)]GlcNAc(b1-2)Man(a1-3)[Gal(a1-3)Gal(b1-3)[Fuc(a1-4)]GlcNAc(b1-2)Man(a1-6)]Man(b1-4)GlcNAc(b1-4)GlcNAc
# Method in brief: as §1
# Gal(a1-3)Gal(b1-4)Glc = target: Gal(a1-3)Gal(b1-4)Glc
# Method in brief: as §1
# Gal(a1-3)Gal(b1-4)GlcNAc = target: Gal(a1-3)Gal(b1-4)GlcNAc
# Method in brief: as §1
# [4] = target: Gal(a1-3)Gal(b1-4)GlcNAc(b1-3)GalNAc
# Method in brief: as §1
# [5] = target: Gal(a1-3)Gal(b1-4)[Fuc(a1-3)]GlcNAc
# Method in brief: as §1
# [6] = target: Gal(a1-3)Gal(b1-4)[Fuc(a1-3)]GlcNAc(b1-2)Man(a1-3)[Gal(a1-3)Gal(b1-4)[Fuc(a1-3)]GlcNAc(b1-2)Man(a1-6)]Man(b1-4)GlcNAc(b1-4)GlcNAc
# Method in brief: as §1
# Gal(a1-3)GalNAc = target: Gal(a1-3)GalNAc
# Method in brief: as §1
# [7] = target: Gal(a1-3)[Gal(a1-4)]Gal(b1-4)GlcNAc
# Method in brief: as §1
# [8] = target: Gal(a1-4)Gal(b1-3)GlcNAc(b1-2)Man(a1-3)[Gal(a1-4)Gal(b1-3)GlcNAc(b1-2)Man(a1-6)]Man(b1-4)GlcNAc(b1-4)GlcNAc
# Method in brief: as §1
# Gal(a1-4)Gal(b1-4)Glc = target: Gal(a1-4)Gal(b1-4)Glc
# Method in brief: as §1
# Gal(a1-4)Gal(b1-4)GlcNAc = target: Gal(a1-4)Gal(b1-4)GlcNAc
# Method in brief: as §1
# [9] = target: Gal(a1-4)Gal(b1-4)GlcNAc(b1-2)Man(a1-3)[Gal(a1-4)Gal(b1-4)GlcNAc(b1-2)Man(a1-6)]Man(b1-4)GlcNAc(b1-4)GlcNAc
# Method in brief: as §1
# [10] = target: Gal(a1-4)Gal(b1-4)GlcNAc(b1-3)Gal(b1-4)Glc
# Method in brief: as §1
# Gal(a1-4)GlcNAc = target: Gal(a1-4)GlcNAc
# Method in brief: as §1
# Gal(a1-6)Glc = target: Gal(a1-6)Glc
# Method in brief: as §1
# Gal(b1-2)Gal = target: Gal(b1-2)Gal
# Method in brief: as §1
# Gal(b1-3)Gal = target: Gal(b1-3)Gal
# Method in brief: as §1
# Gal(b1-3)Gal(b1-4)GlcNAc = target: Gal(b1-3)Gal(b1-4)GlcNAc
# Method in brief: as §1
# [11] = target: Gal(b1-3)Gal(b1-4)GlcNAc(b1-2)Man(a1-3)[Gal(b1-3)Gal(b1-4)GlcNAc(b1-2)Man(a1-6)]Man(b1-4)GlcNAc(b1-4)GlcNAc
# Method in brief: as §1
# Gal(b1-3)GalNAc = target: Gal(b1-3)GalNAc
# Method in brief: as §1
# [12] = target: Gal(b1-3)GalNAc(a1-3)[Fuc(a1-2)]Gal(b1-4)Glc
# Method in brief: as §1
# [13] = target: Gal(b1-3)GalNAc(a1-3)[Fuc(a1-2)]Gal(b1-4)GlcNAc
# Method in brief: as §1
# [14] = target: Gal(b1-3)GalNAc(b1-3)Gal(a1-4)Gal(b1-4)Glc
# Method in brief: as §1
# [15] = target: Gal(b1-3)GalNAc(b1-4)Gal(b1-4)Glc
# Method in brief: as §1
# [16] = target: Gal(b1-3)GalNAc(b1-4)[Neu5Ac(a2-3)]Gal(b1-4)Glc
# Method in brief: as §1
# Gal(b1-3)GlcNAc = target: Gal(b1-3)GlcNAc
# Method in brief: as §1
# [17] = target: Gal(b1-3)GlcNAc(a1-6)Gal(b1-4)GlcNAc
# Method in brief: as §1
# [18] = target: Gal(b1-3)GlcNAc(b1-2)Man(a1-3)[Gal(b1-3)GlcNAc(b1-2)Man(a1-6)]Man(b1-4)GlcNAc(b1-4)GlcNAc
# Method in brief: as §1
# [19] = target: Gal(b1-3)GlcNAc(b1-2)Man(a1-3)[Gal(b1-3)GlcNAc(b1-2)Man(a1-6)]Man(b1-4)GlcNAc(b1-4)[Fuc(a1-6)]GlcNAc
# Method in brief: as §1
# [20] = target: Gal(b1-3)GlcNAc(b1-2)[Gal(b1-3)GlcNAc(b1-6)]Man(a1-6)[Gal(b1-3)GlcNAc(b1-2)Man(a1-3)]Man(b1-4)GlcNAc(b1-4)GlcNAc
# Method in brief: as §1
# [21] = target: Gal(b1-3)GlcNAc(b1-3)Gal(b1-3)GlcNAc
# Method in brief: as §1
# [22] = target: Gal(b1-3)GlcNAc(b1-3)Gal(b1-4)Glc
# Method in brief: as §1
# [23] = target: Gal(b1-3)GlcNAc(b1-3)Gal(b1-4)GlcNAc
# Method in brief: as §1
binder,measurement,setting,value
B1,glycan array binding signal (z-score),Gal(a1-3)Gal,-1.04
same,glycan array binding signal (z-score),Gal(a1-3)Gal(b1-3)GlcNAc,-0.141
same,glycan array binding signal (z-score),[1],0.087
same,glycan array binding signal (z-score),[2],0.114
same,glycan array binding signal (z-score),[3],1.75
same,glycan array binding signal (z-score),Gal(a1-3)Gal(b1-4)Glc,-0.449
same,glycan array binding signal (z-score),Gal(a1-3)Gal(b1-4)GlcNAc,-0.472
same,glycan array binding signal (z-score),[4],-1.69
same,glycan array binding signal (z-score),[5],1.45
same,glycan array binding signal (z-score),[6],1.57
same,glycan array binding signal (z-score),Gal(a1-3)GalNAc,-1.09
same,glycan array binding signal (z-score),[7],-0.645
same,glycan array binding signal (z-score),[8],0.548
same,glycan array binding signal (z-score),Gal(a1-4)Gal(b1-4)Glc,-0.318
same,glycan array binding signal (z-score),Gal(a1-4)Gal(b1-4)GlcNAc,1.17
same,glycan array binding signal (z-score),[9],0.8
same,glycan array binding signal (z-score),[10],0.631
same,glycan array binding signal (z-score),Gal(a1-4)GlcNAc,1.25
same,glycan array binding signal (z-score),Gal(a1-6)Glc,-0.172
same,glycan array binding signal (z-score),Gal(b1-2)Gal,-0.773
same,glycan array binding signal (z-score),Gal(b1-3)Gal,-1.42
same,glycan array binding signal (z-score),Gal(b1-3)Gal(b1-4)GlcNAc,-0.207
same,glycan array binding signal (z-score),[11],-0.149
same,glycan array binding signal (z-score),Gal(b1-3)GalNAc,-0.093
same,glycan array binding signal (z-score),[12],0.456
same,glycan array binding signal (z-score),[13],0.945
same,glycan array binding signal (z-score),[14],-0.019
same,glycan array binding signal (z-score),[15],-1.01
same,glycan array binding signal (z-score),[16],1.16
same,glycan array binding signal (z-score),Gal(b1-3)GlcNAc,-0.033
same,glycan array binding signal (z-score),[17],0.263
same,glycan array binding signal (z-score),[18],1.6
same,glycan array binding signal (z-score),[19],-0.071
same,glycan array binding signal (z-score),[20],1.2
same,glycan array binding signal (z-score),[21],-0.958
same,glycan array binding signal (z-score),[22],-0.251
same,glycan array binding signal (z-score),[23],-0.634

# Not a retest: an excerpt of the list.
binder,measurement,setting,value
B1,glycan array binding signal (z-score),[22],-0.251
same,glycan array binding signal (z-score),[23],-0.634

# From the supplement of paper PMC8728848
